Drawing on paper PMC7993993, this text covers binding for one substance.

Test [1] addresses T1, PomZ^WT (BACTH fusion) (M. xanthus) (UniProt Q1DEM0).
T1 sequence: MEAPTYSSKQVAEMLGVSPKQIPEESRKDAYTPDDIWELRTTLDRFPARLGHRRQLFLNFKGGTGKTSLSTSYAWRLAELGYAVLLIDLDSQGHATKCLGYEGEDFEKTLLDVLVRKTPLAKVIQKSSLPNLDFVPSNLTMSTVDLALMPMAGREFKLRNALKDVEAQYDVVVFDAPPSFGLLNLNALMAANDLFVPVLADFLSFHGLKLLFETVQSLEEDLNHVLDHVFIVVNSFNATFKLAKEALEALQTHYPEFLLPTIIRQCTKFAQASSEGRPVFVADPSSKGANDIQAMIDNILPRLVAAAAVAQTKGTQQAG
Briefly: two-hybrid; bacterial adenylate cyclase two-hybrid (BACTH); fusions to T18 and T25 of B. pertussis adenylate cyclase; blue colonies on LB agar with X-Gal and IPTG.

Test [2] concerns the target T2, PomZ^D90A (BACTH fusion) (M. xanthus) (UniProt Q1DEM0).
T2 sequence: T1 sequence with D90A
The description is as above.

Residue numbers refer to the chain shown, from its start. Results are given in words; binding and its absence hold for the method and conditions named. Binding can be weak; no strength is given. Where a sequence is shown, tags or fusion partners need not be part of it.

On to “PomX^WT (BACTH fusion) (from UniProt Q1DEL9)”, for which the binding result in test [1] and in test [2] was “binds” each time.
